Measured values reported in patent publication US20250113823A1, “Arthropod Control Compositions” (priority 2022, published 2025).
Some entries share one result that the patent states for a list of compounds. For at least one compound, name, drawing or mass did not settle the structure.

System: Aedes aegypti
Experiment: Warm Body assay, mosquito landings on treated warm body
Format: in vivo
Experimental: The arthropod controlling effect according to the present invention is determined on mosquitoes using an adapted Warm Body assay as defined in Kröber T, Kessler S, Frei J, Bourquin M, Guerin PM. An in vitro assay for testing mosquito controlling compounds employing a warm body and carbon dioxide as a behavioral activator. J Am Mosq Control Assoc. 2010; 26: 381-386. Further information is provided in the accompanying examples
The controlling effect, repellence & spatial repellence, according to the present invention is determined by testing the Warm Body assay against the yellow fever mosquito, Aedes aegypti Rockefeller strain. […] Observations of controlling efficacy were made on host-seeking females of uniform age, 5 to 10 days old selected as mentioned in the publication mentioned hereinabove. Tested hungry females had access to 10% sugar solution but were not blood-fed. Further information is provided in the accompanying examples.
The published protocol has been adapted in not manually counting the landing mosquitoes but automatically using an automatic counting software, the switch from Anopheles gambiae to A. aegypti led to a decrease of mosquitoes' number placed in the tested cage due to the size difference (i.e. 30 mosquitoes instead of 50) and to an increase of lighting as A. aegypti is a diurnal mosquitoes (i.e. 150 lux instead of 4 lux). Further information is provided in the accompanying examples. […]
The controlling effect according to the present invention was assessed using an adapted Warm Body assay as defined in Kröber T, Kessler S, Frei J, Bourquin M, Guerin P M. 2010. J Am Mosq Control Assoc. 26: 381-386. In this in-vitro assay the number of mosquito landing on a warm body, simulating an attractive host treated with the tested stimuli, was measured in order to assess the repellence effect.
The published protocol has been adapted as the switch from Anopheles gambiae to Aedes aegypti led to a decrease of mosquitoes placed in the tested cage due to the size difference (i.e. 30 mosquitoes instead of 50) and to an increase of lighting since A. aegypti is a diurnal mosquitoes (i.e. 150 lux instead of 4 lux).
On the sandblasted glass Petri dish covering the warm body (28.3 cm^2), 100 μL of the compounds diluted at different concentrations in ethanol was applied. The number of mosquito landing on the warm body was counted for each stimulus and pure ethanol (solvent) as control.

[1] = intermediate concentration of 0.04% (Table 3)
[2] = highest tested concentration, 1% (Table 3)

CC=Cc1cc(OC)c(OC)c(OC)c1 [compound 1123, 1,2,3-trimethoxy-5-[1-propen-1-yl]benzene]
reduce the number of landings (highest tested concentration (1%) (Table 1)): > 90%
number of mosquito landings (in vivo): < 5 landings/minute

COc1cc(C=CC=O)ccc1O [compound 1527, 3-(4-hydroxy-3-methoxyphenyl)pro-2-enal]
reduce the number of mosquito landings (in vivo): more than 50%
repellence [1]: above 75%

COc1ccc(C(C)=O)c(OC)c1 [compound 1557, 2,4-dimethoxyacetophenone]
repellent effect (concentration of 0.0016% (Table 3)): above 80%
repellence [2]: > 90%
repellence [1]: above 75%
reduce the number of mosquito landings (lowest concentration of 0.0016% (Table 3)): more than 50%

COc1ccc(C(C)=O)c(O)c1 [compound 1559, 2-hydroxy-4-methoxyacetophenone]
repellence [2]: > 90%
reduce the number of mosquito landings (in vivo): more than 50%
repellent effect (in vivo): above 80%
repellence [1]: above 75%

COc1cc(C=CC(=O)O)cc(OC)c1OC [compound 1566, 3-(3,4,5-trimethoxyphenyl)prop-2-enoic acid]
number of mosquito landings (dose of 1%, from 29 landings/min (Table 2)): < 1 landing/min

COc1cc(C=CCOC(C)=O)cc(OC)c1OC [compound 2247, 3-(3,4,5-trimethoxyphenyl)-2-acetate]
repellence [2]: > 90%

COc1cc(C)cc(OC)c1OC [compound 2250, 1,2,3-trimethoxy-5-methybenzene]
repellence [2]: > 90%
